# Data reported in the supplement of paper PMC7666118.
# Chains of the proteins cited; added tags and fusions are not shown. Lines headed by an entry give the natural chain unless they say otherwise; changes in a name come on top.
# UniProt Q6IN84: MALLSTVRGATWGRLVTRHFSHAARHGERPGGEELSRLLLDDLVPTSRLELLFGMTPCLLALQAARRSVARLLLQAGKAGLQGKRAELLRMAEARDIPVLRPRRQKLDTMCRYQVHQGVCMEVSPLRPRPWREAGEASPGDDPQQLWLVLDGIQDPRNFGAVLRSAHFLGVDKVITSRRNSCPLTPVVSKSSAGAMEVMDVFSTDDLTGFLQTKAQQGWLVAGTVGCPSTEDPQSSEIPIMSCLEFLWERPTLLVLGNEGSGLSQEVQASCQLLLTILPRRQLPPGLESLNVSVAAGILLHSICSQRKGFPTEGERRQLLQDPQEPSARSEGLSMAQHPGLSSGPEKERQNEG
# UniProt Q9UIS9: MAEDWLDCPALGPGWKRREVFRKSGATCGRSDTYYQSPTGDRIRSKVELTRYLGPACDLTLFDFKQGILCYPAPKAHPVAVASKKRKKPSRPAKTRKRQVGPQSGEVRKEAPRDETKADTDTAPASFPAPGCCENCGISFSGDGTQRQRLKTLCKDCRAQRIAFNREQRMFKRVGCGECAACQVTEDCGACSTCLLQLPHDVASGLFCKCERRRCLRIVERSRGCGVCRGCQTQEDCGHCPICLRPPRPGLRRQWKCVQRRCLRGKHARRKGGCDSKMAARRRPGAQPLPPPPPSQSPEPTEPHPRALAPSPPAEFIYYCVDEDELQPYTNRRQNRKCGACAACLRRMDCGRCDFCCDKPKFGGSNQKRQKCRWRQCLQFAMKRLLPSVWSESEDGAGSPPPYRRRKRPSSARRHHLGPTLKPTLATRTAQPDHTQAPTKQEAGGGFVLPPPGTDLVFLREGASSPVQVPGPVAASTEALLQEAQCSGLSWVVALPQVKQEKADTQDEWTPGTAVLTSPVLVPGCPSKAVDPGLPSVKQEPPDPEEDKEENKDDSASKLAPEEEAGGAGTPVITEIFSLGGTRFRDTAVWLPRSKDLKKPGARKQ
# UniProt O95819: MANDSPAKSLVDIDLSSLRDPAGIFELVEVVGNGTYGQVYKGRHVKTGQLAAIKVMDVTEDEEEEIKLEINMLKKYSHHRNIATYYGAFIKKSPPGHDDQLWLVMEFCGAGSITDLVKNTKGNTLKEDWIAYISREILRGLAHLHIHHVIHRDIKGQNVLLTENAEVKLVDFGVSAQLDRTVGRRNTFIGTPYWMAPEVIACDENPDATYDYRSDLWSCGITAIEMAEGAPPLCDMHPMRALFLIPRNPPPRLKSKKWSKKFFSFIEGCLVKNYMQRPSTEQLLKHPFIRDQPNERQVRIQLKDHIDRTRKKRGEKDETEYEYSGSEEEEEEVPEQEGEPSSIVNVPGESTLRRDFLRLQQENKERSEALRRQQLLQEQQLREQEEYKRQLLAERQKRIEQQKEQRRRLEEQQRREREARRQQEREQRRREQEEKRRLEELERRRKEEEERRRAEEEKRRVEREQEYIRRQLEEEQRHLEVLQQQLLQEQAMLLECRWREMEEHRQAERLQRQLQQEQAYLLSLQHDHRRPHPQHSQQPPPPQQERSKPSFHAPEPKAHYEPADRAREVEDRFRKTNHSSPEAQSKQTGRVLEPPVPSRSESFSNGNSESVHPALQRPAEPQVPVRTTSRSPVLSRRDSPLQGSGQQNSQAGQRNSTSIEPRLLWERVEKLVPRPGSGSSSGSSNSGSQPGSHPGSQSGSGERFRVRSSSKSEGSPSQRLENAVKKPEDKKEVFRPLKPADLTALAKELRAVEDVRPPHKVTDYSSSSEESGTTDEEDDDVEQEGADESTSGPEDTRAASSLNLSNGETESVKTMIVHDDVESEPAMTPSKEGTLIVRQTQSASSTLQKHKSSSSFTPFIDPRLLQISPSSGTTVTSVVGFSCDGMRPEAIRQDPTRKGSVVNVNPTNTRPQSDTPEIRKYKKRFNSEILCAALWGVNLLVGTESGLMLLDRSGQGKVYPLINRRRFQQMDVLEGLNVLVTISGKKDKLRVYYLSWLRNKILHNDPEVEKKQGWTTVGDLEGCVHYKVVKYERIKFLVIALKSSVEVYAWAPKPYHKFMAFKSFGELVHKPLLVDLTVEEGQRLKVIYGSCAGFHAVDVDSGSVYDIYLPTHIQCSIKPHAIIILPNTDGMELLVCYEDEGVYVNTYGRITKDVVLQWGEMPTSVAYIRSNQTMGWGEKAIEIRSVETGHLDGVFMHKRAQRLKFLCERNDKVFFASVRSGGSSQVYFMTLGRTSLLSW
# UniProt O00587: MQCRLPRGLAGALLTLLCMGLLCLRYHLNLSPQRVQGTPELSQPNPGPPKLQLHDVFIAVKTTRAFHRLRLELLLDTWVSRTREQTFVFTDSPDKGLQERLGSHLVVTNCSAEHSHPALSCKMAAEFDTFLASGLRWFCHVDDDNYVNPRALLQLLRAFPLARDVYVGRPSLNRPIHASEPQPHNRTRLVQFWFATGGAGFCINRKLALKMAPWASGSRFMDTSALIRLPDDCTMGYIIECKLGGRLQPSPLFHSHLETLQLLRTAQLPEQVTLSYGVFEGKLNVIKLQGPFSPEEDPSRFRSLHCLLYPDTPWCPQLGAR
# UniProt P39210: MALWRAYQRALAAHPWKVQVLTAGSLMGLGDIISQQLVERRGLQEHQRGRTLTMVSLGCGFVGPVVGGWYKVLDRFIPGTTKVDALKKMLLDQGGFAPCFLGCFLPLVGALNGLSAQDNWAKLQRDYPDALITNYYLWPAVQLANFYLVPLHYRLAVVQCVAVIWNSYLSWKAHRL
# UniProt O14880: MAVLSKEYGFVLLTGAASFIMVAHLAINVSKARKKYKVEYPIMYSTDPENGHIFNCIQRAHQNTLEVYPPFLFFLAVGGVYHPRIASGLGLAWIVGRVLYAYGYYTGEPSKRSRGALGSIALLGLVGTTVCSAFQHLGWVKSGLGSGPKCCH
# UniProt Q8NHS3: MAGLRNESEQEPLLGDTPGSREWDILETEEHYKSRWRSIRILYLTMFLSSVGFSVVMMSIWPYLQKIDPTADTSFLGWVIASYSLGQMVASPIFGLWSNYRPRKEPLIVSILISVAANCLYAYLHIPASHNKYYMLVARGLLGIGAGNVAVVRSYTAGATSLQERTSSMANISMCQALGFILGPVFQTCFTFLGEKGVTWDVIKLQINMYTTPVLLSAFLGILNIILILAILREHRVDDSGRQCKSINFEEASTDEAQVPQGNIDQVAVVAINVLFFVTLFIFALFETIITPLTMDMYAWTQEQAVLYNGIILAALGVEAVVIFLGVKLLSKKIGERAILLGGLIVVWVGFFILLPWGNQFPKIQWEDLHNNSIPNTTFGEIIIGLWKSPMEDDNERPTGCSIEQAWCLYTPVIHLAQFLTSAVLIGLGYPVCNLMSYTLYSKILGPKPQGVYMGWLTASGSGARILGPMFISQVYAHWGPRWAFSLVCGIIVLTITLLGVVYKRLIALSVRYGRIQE
# UniProt Q86U44, whole entry: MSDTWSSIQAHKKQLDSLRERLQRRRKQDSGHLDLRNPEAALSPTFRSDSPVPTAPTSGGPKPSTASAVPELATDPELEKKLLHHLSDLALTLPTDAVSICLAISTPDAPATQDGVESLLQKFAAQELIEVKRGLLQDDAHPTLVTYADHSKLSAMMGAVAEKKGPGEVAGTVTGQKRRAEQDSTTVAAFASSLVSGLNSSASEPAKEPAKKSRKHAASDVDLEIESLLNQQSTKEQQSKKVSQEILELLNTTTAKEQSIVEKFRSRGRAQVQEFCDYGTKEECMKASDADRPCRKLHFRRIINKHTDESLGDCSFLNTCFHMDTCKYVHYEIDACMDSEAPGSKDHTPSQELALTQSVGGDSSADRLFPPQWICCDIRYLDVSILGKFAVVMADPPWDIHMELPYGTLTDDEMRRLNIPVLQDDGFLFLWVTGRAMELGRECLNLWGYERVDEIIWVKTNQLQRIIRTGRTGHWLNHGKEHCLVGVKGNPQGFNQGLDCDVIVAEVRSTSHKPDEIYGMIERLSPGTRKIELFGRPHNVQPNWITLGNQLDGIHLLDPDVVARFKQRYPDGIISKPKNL
# UniProt P55196: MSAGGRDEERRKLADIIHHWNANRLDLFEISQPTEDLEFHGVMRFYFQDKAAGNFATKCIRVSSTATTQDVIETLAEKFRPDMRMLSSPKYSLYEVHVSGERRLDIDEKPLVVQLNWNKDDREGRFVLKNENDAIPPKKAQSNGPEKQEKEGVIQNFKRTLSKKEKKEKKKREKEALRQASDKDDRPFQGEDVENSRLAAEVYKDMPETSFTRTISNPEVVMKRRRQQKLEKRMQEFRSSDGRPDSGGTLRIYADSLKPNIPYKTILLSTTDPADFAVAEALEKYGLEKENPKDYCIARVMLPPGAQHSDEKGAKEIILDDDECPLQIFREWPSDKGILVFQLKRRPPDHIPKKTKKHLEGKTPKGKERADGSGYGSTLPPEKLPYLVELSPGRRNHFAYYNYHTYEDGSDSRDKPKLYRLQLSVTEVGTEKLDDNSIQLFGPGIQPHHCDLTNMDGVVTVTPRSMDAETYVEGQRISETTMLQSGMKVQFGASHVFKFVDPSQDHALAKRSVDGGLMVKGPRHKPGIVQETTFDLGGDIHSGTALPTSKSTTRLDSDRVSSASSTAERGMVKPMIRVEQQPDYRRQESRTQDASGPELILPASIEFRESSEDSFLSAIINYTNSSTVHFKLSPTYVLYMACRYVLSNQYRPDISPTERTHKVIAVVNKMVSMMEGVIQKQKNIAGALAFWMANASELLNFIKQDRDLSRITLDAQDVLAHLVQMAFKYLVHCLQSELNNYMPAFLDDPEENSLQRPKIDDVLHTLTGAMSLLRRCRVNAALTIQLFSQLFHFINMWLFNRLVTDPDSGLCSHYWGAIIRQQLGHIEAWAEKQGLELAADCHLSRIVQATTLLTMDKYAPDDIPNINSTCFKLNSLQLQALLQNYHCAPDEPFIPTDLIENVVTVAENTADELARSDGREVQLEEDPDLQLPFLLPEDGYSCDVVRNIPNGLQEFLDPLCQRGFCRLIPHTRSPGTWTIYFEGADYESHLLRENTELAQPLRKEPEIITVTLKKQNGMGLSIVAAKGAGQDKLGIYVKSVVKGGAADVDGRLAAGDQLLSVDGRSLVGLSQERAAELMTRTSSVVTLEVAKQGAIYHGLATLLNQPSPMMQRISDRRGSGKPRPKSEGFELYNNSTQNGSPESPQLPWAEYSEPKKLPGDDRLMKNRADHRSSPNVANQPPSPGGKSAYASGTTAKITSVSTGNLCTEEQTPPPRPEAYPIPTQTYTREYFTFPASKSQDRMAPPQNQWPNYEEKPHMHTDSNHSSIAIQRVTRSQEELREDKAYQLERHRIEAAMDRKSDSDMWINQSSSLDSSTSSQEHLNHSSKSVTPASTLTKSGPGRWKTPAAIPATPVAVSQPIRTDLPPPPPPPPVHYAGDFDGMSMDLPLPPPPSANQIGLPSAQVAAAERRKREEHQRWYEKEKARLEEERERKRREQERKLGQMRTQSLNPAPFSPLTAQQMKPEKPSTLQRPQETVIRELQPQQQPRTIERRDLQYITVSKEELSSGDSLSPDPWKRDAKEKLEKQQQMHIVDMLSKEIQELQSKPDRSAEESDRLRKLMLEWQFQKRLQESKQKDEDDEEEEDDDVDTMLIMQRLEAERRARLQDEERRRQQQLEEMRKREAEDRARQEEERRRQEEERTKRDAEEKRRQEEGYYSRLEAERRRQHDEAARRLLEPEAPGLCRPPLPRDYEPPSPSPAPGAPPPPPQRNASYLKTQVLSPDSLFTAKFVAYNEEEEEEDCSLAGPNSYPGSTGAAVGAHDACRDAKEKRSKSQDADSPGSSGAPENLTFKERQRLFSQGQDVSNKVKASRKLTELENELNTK
# UniProt Q96RQ3: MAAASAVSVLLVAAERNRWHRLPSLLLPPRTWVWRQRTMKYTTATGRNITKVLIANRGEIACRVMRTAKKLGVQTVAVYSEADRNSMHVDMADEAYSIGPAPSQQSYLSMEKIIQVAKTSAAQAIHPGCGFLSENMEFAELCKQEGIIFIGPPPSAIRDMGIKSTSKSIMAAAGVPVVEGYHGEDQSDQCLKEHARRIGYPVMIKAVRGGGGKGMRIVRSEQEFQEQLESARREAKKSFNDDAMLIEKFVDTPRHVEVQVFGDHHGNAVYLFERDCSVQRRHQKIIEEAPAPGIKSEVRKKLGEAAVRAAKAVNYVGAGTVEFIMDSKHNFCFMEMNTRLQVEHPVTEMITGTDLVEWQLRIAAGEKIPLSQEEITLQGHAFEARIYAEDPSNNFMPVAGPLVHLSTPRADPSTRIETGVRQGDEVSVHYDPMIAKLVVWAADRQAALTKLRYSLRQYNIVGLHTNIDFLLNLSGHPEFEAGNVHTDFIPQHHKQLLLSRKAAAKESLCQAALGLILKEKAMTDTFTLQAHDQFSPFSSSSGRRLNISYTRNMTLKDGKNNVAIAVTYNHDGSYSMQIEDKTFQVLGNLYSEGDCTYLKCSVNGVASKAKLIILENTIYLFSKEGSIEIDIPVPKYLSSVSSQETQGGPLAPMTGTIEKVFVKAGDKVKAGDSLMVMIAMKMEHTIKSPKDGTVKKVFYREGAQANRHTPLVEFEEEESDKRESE
# The other results are listed elsewhere or left out.
# Compound: COc1ccc(Cn2ccc3ccc(C(=O)NO)cc32)cc1
# Assay: dose-dependent thermal stabilisation call (2D-TPP, DLPTP, 10% FDR) (binary (1 = stabilised)); higher = stabilised by the compound
# Settings: system: HL-60 intact cells; concentration range 0.04-10 µM
row,Target,dose-dependent thermal stabilisation call
1,METAP2 (UniProt P50579),active: 1
2,MGRN1 (UniProt O60291),inactive: 0
3,MRPS33 (UniProt Q9Y291),inactive: 0
4,MRM1 (UniProt Q6IN84),inactive: 0
5,MBD1 (UniProt Q9UIS9),inactive: 0
6,MOBKL2A (UniProt Q96BX8),inactive: 0
7,MAP4K4 (UniProt O95819),inactive: 0
8,MRPL27 (UniProt Q9P0M9),inactive: 0
9,MRPL19 (UniProt P49406),inactive: 0
10,MRCL3,inactive: 0
11,MRPS12 (UniProt O15235),inactive: 0
12,MFN2 (UniProt O95140),inactive: 0
13,MFNG (UniProt O00587),inactive: 0
14,MBNL1 (UniProt Q9NR56),inactive: 0
15,MDH2 (UniProt P40926),active: 1
16,MICAL2 (UniProt O94851),inactive: 0
17,MPV17 (UniProt P39210),inactive: 0
18,MARVELD1 (UniProt Q9BSK0),inactive: 0
19,MRPS10 (UniProt P82664),inactive: 0

row,Target,dose-dependent thermal stabilisation call
1,MGST3 (UniProt O14880),inactive: 0
2,MFSD8 (UniProt Q8NHS3),inactive: 0
3,MPP6,inactive: 0
4,MRPS31 (UniProt Q92665),inactive: 0
5,MRPL38 (UniProt Q96DV4),inactive: 0
6,METTL3 (UniProt Q86U44),inactive: 0
7,MRPL44 (UniProt Q9H9J2),inactive: 0
8,MLLT4 (UniProt P55196),inactive: 0
9,METTL11A (UniProt Q9BV86),inactive: 0
10,MBOAT7 (UniProt Q96N66),inactive: 0
11,MMADHC (UniProt Q9H3L0),inactive: 0
12,MGEA5 (UniProt O60502),inactive: 0
13,MAP2K3 (UniProt P46734),inactive: 0
14,MCCC1 (UniProt Q96RQ3),inactive: 0
15,MARK3 (UniProt P27448),inactive: 0
16,MRPL35 (UniProt Q9NZE8),inactive: 0
17,MAP7D1 (UniProt Q3KQU3),inactive: 0
18,MARCH5 (UniProt Q9NX47),inactive: 0

# In a second layout: entries from further up.
row | Target | dose-dependent thermal stabilisation call
8 | MRPL27 (UniProt Q9P0M9) | inactive: 0
9 | MRPL19 (UniProt P49406) | inactive: 0
10 | MRCL3 | inactive: 0
19 | MRPS10 (UniProt P82664) | inactive: 0
3 | MPP6 | inactive: 0
6 | METTL3 (UniProt Q86U44) | inactive: 0
7 | MRPL44 (UniProt Q9H9J2) | inactive: 0
8 | MLLT4 (UniProt P55196) | inactive: 0
17 | MAP7D1 (UniProt Q3KQU3) | inactive: 0
